Laboratory results from US5091390A, “Treatment of CNS disorders with 4,5,6,7-tetrahydro-1H-imidazo (4,5-)-pyridines and analogs” (E. I. du Pont de Nemours and Company, priority 1990, dated 1992).
At least one read-out could not be matched to a standard name with certainty.

Tested on: AII receptors (rat adrenal medullary microsomes)
Assay: [125I]AII specific binding, rat adrenal medulla / medullary microsomes
Details: 60 min

## CCCCc1nc(Cl)c(CO)n1Cc1ccc(-c2ccccc2-c2nn[nH]n2)cc1 [DuP 753]
  binding resistant to displacement (% of the binding): About 90%
